Values from PubChem BioAssay AID1259254 (NCATS, 2017)
The deposit covers about 59,000 reagents; this is a part drawn at random. Of all reagents, about 1,550 (2.6%) were called active. 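G2 share is only a proxy for re-replication; each gene was hit by three separate siRNAs, and active genes were retested.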 Raw values are not corrected between plates. Entries without a mark were called inactive. Reagents against one gene are numbered here. The record does not give: the amount of reagent.

- Aim: 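Genome-wide screen for genes that prevent DNA re-replication in cancer cells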 (primary screen)
- Cells: human HCT116 colorectal cancer cells
- Reagent: single siRNA against human genes
- Time to read-out: 3 days
- Measured: 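Imaged Hoechst DNA stain sorts each cell into a cycle phase by DNA amount; per plate, G2 fraction set to 0% for non-targeting and 100% for GMNN siRNA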
- Direction: G2 robust z-score and G2 cells, % of GMNN control: higher = more G2 cells, more excess DNA replication; raw share of cells in G2: higher = larger share of cells with G2 DNA content
- Active means: 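An siRNA counts as active if its G2 robust z-score lies at least 5 MADs above the screen median; here such calls match roughly 38% of GMNN control or more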

no.	target	reagent no.	G2 robust z-score	G2 cells, % of GMNN control	raw share of cells in G2 (%)
1	MAP1LC3B (GeneID 81631)	1	-0.548	-0.886	3.87
2	MAP1LC3B (GeneID 81631)	2	-0.654	-1.64	4.75
3	MAP1LC3B (GeneID 81631)	3	0.285	4.98	6.63
4	STPG4 (GeneID 285051)	1	-0.707	-2.01	2.91
5	STPG4 (GeneID 285051)	2	0.433	6.02	5.37
6	STPG4 (GeneID 285051)	3	-0.805	-2.7	2.45
7	NCKAP1 (GeneID 10787)	1	4.59	35.2	18.8
8	NCKAP1 (GeneID 10787)	2	1.2	11.4	8.85
9	NCKAP1 (GeneID 10787)	3	0.631	7.41	5.95
10	TMEM134 (GeneID 80194)	1	-0.667	-1.72	1.91
11	TMEM134 (GeneID 80194)	2	4.01	31.2	17.4
12	TMEM134 (GeneID 80194)	3	0.593	7.14	7.42
13	LGR4 (GeneID 55366)	1	1.56	13.9	10.8
14	LGR4 (GeneID 55366)	2	-0.928	-3.56	3.27
15	LGR4 (GeneID 55366)	3	-0.249	1.22	3.64
16	RBM15 (GeneID 64783)	1	-1.11	-4.84	3.64
17	RBM15 (GeneID 64783)	2	-0.399	0.159	4.28
18	RBM15 (GeneID 64783)	3	0.149	4.01	5.77
19	TPRX1 (GeneID 284355)	1	0.526	6.67	5.29
20	TPRX1 (GeneID 284355)	2	-0.85	-3.02	2.54
21	TPRX1 (GeneID 284355)	3	1.25	11.7	7.59
22	BTBD16 (GeneID 118663)	1	-0.225	1.38	2.22
23	BTBD16 (GeneID 118663)	2	-0.663	-1.7	3.41
24	BTBD16 (GeneID 118663)	3	1.48	13.4	7.32
25	SPATA2 (GeneID 9825)	1	4.25	32.9	20.2
26	SPATA2 (GeneID 9825)	2	1.34	12.4	9.13
27	SPATA2 (GeneID 9825)	3	2.01	17.1	9.64
28	OXSR1 (GeneID 9943)	1	2.64	21.5	12.3
29	OXSR1 (GeneID 9943)	2	-0.253	1.19	5.62
30	OXSR1 (GeneID 9943)	3	0.261	4.81	5.22

2 of these entries in another layout:
TMEM134 (GeneID 80194) #3
- G2 robust z-score: 0.593
- G2 cells, % of GMNN control: 7.14
- raw share of cells in G2 (%): 7.42

LGR4 (GeneID 55366) #1
- G2 robust z-score: 1.56
- G2 cells, % of GMNN control: 13.9
- raw share of cells in G2 (%): 10.8
